The list shows a part of the results. The data scatter; read single values as rough.
How the values were obtained:
Settings in all cases: 10 µM
[1] = system: Plasmodium vivax liver stage (primary human hepatocyte culture); assay: hypnozoite quantity inhibition (% inhibition); higher = more active against hypnozoites
[2] = system: Plasmodium vivax liver stage (primary human hepatocyte culture); assay: schizont net growth area inhibition (% inhibition); higher = more active against liver schizonts
[3] = system: primary human hepatocytes; assay: hepatic nuclei reduction relative to DMSO (100 - % of negative control); higher = more toxic to hepatocytes
[4] = assay mode: Prophylactic (treated before or shortly after infection), fixed day 6 post-infection
[5] = assay mode: Radical Cure (treated from day 5 post-infection for 3 days), fixed day 8 post-infection

Row | SMILES | hypnozoite quantity inhibition [1, 4] | hypnozoite quantity inhibition [1, 5] | schizont net growth area inhibition [2, 4] | schizont net growth area inhibition [2, 5] | hepatic nuclei reduction [3, 4] [%] | hepatic nuclei reduction [3, 5] [%]
1 | CC(C)(C)CN1C(=O)C(c2ccccc2)(c2ccccc2)N=C1N | -51 | -25 | 8.9 | -9 | 11 | -6
2 | O=C(CCc1ccccc1)c1ccccc1OCC(O)CN1CCCCC1 (stereo not given) | 0 | 42.8 | 20.8 | -23.6 | 2 | -5
3 | Nc1nc(Nc2cccc(F)c2)nc2ccccc12 | 11.4 | 29.2 | 6.9 | 47.7 | -2 | -4
4 | COc1ccc(C2C(C(=O)Nc3cccc(OC)c3)c3ccccc3C(=O)N2C2CCCCC2)cc1 (stereo not given) | 4.4 | -14.4 | -30.3 | -61.2 | 0 | -6
5 | Cc1cc(Nc2ccc(OCc3ccccc3)cc2)nc2cc(O)ccc12 | -4.4 | 12.8 | -13.5 | 22.3 | -1 | -15
6 | CCCn1c(=N)c(C(=O)NC2CCCCC2)cc2c(=O)n3cccc(C)c3nc21 | -4.3 | 35.9 | -20.7 | 51.6 | -7 | 3
7 | COc1ccc(CNC(=O)c2cc3c(=O)n4ccccc4nc3n(CCc3ccccc3)c2=N)cc1 | -17.7 | 26.7 | -16.8 | -2.5 | -17 | 4
8 | CC1(C)Cc2c(c(N3CCOCC3)nc3snc(Br)c23)CO1 | -17 | -27 | 19.9 | 63.5 | -7 | -2
9 | COc1cc2[nH]c(C)c(-c3ccc(Oc4ccc(OC(F)(F)F)cc4)cc3)c(=O)c2cc1Cl | 2 | 23 | 75 | 60.1 | -10 | -12
10 | Cc1ccc(C(=O)Nc2ccc(S(=O)(=O)O)c3cc(S(=O)(=O)O)cc(S(=O)(=O)O)c23)cc1NC(=O)c1cccc(NC(=O)Nc2cccc(C(=O)Nc3cc(C(=O)Nc4ccc(S(=O)(=O)O)c5cc(S(=O)(=O)O)cc(S(=O)(=O)O)c45)ccc3C)c2)c1 | 25 | -18 | 36.3 | -114 | 1 | -2
11 | CN(C(=O)c1cc2c(-c3cncnc3)cccc2[nH]1)c1ccccc1 | 23 | 2 | 101 | 105 | -7 | 1
12 | O=C1Nc2ccc(Br)cc2C12NCCc1c2[nH]c2ccccc12 (stereo not given) | -68 | -28 | 39.7 | -218 | -3 | 4
13 | Oc1ccc(Cl)cc1CNc1nc2ccccc2[nH]1 | 14.5 | 26.5 | 24.5 | -70.2 | 4 | -7
14 | FC(F)(F)c1ccc(N(c2cccnc2)C2CCN(c3ccc(C(F)(F)F)cn3)CC2)cc1 | -53 | -20 | -56.6 | -24.9 | -8 | -3
15 | CN1CCC(NCc2cccc(-c3ccc(S(=O)(=O)NCc4ccccc4)cc3)c2)CC1 | -50 | -10 | 66.3 | 0.8 | 4 | 4
16 | FC(F)(F)c1nnc2ccc(Cl)nn12 | 15 | -10 | 33.6 | -0.9 | -4 | 7
17 | CCOc1ccc2cc(-c3nn(C(C)(C)C)c(N)c3C(N)=O)cnc2c1 | 27 | -44 | 35 | -70.1 | 7 | -3
18 | COc1cccc(-c2cc3c(Nc4cccnc4)nccc3[nH]2)c1 | -3 | -22 | -7.8 | -33.6 | -7 | -9
19 | COC(=O)c1ccc(C2C3=C(O)CC(c4ccc(F)cc4)CC3=Nc3ccccc3N2C(=O)c2ccccc2)cc1 (stereo not given) | 84.2 | -7.6 | 90.5 | 28.4 | -7 | 5
20 | Cc1cccc(Nc2nc(N)c3ccccc3n2)c1 | 18.8 | 45 | -43.7 | 63.2 | 1 | -6

Row | SMILES | hypnozoite quantity inhibition [1, 4] | hypnozoite quantity inhibition [1, 5] | schizont net growth area inhibition [2, 4] | schizont net growth area inhibition [2, 5] | hepatic nuclei reduction [3, 4] [%] | hepatic nuclei reduction [3, 5] [%]
21 | Cc1cc(=O)oc2c1ccc1oc(C(=O)c3ccccc3)c(C)c12 | -7.2 | 65.6 | 41.5 | 29.1 | -1 | 7
22 | Cc1cc(Nc2ccncc2)n2nc(C)c(-c3ccccc3Cl)c2n1 | 39 | 35 | -25.1 | -54.7 | -5 | 1
23 | CC1CCCCN1C(=O)NCCc1coc(-c2ccc(F)cc2)n1 (stereo not given) | 4 | 9 | 47.5 | 11.1 | -7 | -6
24 | COc1ccc2nccc(NC(=O)C3CCN(CCc4ccc(Cl)cc4)CC3)c2n1 | 44 | -4 | -10.2 | -47.6 | -6 | -12
25 | C=CC1CN2CCC1CC2C(O)c1ccnc2ccc(OC)cc12 (stereo not given) | -31 | 28 | -28.6 | 64.5 | -4 | 1
26 | Cc1ccc2cc3c(N)c4c(C)ccc(C)c4nc3nc2c1 | 17.3 | 40.5 | 14.4 | -49.7 | -11 | 10
27 | CC(Oc1ccccc1)C(=O)Nc1nc(-c2ccccn2)cs1 (stereo not given) | 2 | 35 | 14.4 | 36 | -3 | 0
28 | CCCNC(=O)N1CCC2(CC1)CC(=O)c1cc(C)ccc1O2 | -5 | -60 | -58 | -24.6 | -6 | -4
29 | CCCCOC(=O)c1ccc(Nc2cc(C)nc3ccc(OC)cc23)cc1 | -15.2 | -14.4 | -3.4 | -80.9 | 2 | -14
30 | Clc1ccc(Cl)c(CO[C@H]2CCCC[C@@H]2n2ccnc2)c1 | -11 | -51 | -20.4 | -116 | -4 | -21
31 | Oc1c(I)cc(I)c2cccnc12 | 56 | -10 | -18.3 | -43.7 | 10 | -5
32 | CC(C)N=C(N)N=C(N)Nc1ccc(Cl)c(Cl)c1 | 14 | 47 | 57.8 | 72.8 | 6 | -6
33 | CC(=O)c1ccc(NC(=O)CSc2nc(-c3ccccc3Cl)ns2)cc1 | -19.9 | 29 | 0.3 | 38 | -7 | -3
34 | Cc1ccc(Nc2nc(-c3ccccn3)cs2)cc1 | 20.9 | 18.3 | 23.5 | -26.1 | -4 | -2
35 | O=C(O)C1Cc2c([nH]c3ccccc23)C(c2ccc(Cl)cc2Cl)N1 (stereo not given) | 27.2 | 26.5 | 45.3 | -11.3 | -4 | -4
36 | CCCc1c(CC)c(=N)c2ccccc2n1C | 41.1 | 26.7 | 24.5 | 32.9 | 13 | 4
37 | COc1ccc(C2=NCCN2)cc1-c1cn(-c2cccc(C3=NCCN3)c2)nn1 | 15 | 3 | 29.8 | 7.5 | -3 | -12
38 | CCCCc1c(CCC)c(=N)c2ccccc2n1C | -19.1 | 47.3 | -73.6 | -50.7 | 1 | -2
39 | O=C1NC(=O)[C@]2(CCOc3ccc(F)cc32)N1 | 15 | -2 | 45.7 | -10.6 | -4 | 8
40 | O=C(Nc1ccccc1-c1nc2c(C(=O)O)cccc2o1)c1ccccc1 | 4 | -31 | 26.3 | -43.9 | -7 | -4

Of the compounds above, 2 have bromine.
Row | SMILES | hypnozoite quantity inhibition [1, 4] | hypnozoite quantity inhibition [1, 5] | schizont net growth area inhibition [2, 4] | schizont net growth area inhibition [2, 5] | hepatic nuclei reduction [3, 4] [%] | hepatic nuclei reduction [3, 5] [%]
8 | CC1(C)Cc2c(c(N3CCOCC3)nc3snc(Br)c23)CO1 | -17 | -27 | 19.9 | 63.5 | -7 | -2
12 | O=C1Nc2ccc(Br)cc2C12NCCc1c2[nH]c2ccccc12 (stereo not given) | -68 | -28 | 39.7 | -218 | -3 | 4

More structures follow.

Row | SMILES | hypnozoite quantity inhibition [1, 4] | hypnozoite quantity inhibition [1, 5] | schizont net growth area inhibition [2, 4] | schizont net growth area inhibition [2, 5] | hepatic nuclei reduction [3, 4] [%] | hepatic nuclei reduction [3, 5] [%]
41 | CC1(COc2ccc(N3CCC(Oc4ccc(OC(F)(F)F)cc4)CC3)cc2)Cn2cc([N+](=O)[O-])nc2O1 (stereo not given) | 7 | -51 | 7.4 | -173 | -13 | -8
42 | COc1cccc(C(=O)Nc2ccc(-c3nc4ccccc4[nH]3)cc2)c1 | -26.6 | 33.6 | -3.2 | 23.4 | 5 | -7
43 | CCOC(=O)c1cnc2c(C)cccc2c1Nc1ccc(C(C)=O)cc1 | -0.6 | 47.3 | 44.2 | 45.8 | -6 | 4
44 | COc1cc(CN2CCC3(C=Cc4ccccc43)CC2)cc2c1OCO2 | -2 | -23 | -0.6 | -33.3 | 4 | -1
45 | CCN(CC)CCCNc1ccnc2cc3ccccc3cc12 | -8 | 42.7 | -219 | 17.3 | -3 | -2
46 | CCCCCCC[C@@H]1CN[C@H](C(=O)NC(C(C)Cl)C2O[C@H](SC)[C@H](O)[C@@H](O)[C@H]2O)C1 (stereo not given in full) | -76 | 15 | -6.1 | 13.1 | 10 | -2
47 | COC(=O)c1cccc2oc(-c3cccc(OC)c3NC(=O)c3cc(-c4ccccc4)on3)nc12 | -5 | 43 | -70.6 | 55.2 | -7 | -1
48 | COc1ccc(C2(C(=O)Nc3ccc(Br)cc3)CCCC2)cc1 | 2 | -8 | 46.9 | -58.2 | -7 | -1
49 | CC(C)(C)c1cc(C(=O)Nc2cccnc2)cc(C(=O)Nc2cccnc2)c1 | -27 | -36 | 33.9 | -97.5 | -7 | 0
50 | Nc1ncc(Br)cc1-c1nc2cc(Cl)cnc2[nH]1 | -156 | -173 | -56.5 | -112 | -5 | -4
51 | CC(C)(C)C(=O)N(CCCCCCN1C[C@H](O)[C@@H](O)[C@H](O)[C@H]1CO)C1CCCCCC1 | 18 | 19 | -2.5 | 46.7 | 1 | -5
52 | C[C@H](C(N)=O)N1CCCC[C@H]1c1ccc(OCc2cccc(F)c2)cc1 | 7 | 1 | 17.2 | 31 | 6 | 2
53 | O=C(NC1CC1)c1ccc(N2CCOc3ccc(Cl)cc32)s1 | 21 | -67 | 22.2 | -51 | -1 | -3
54 | COc1cccc(NC(=O)Cn2c(C)c(C#N)c3ccccc32)c1 | -35.5 | 40.5 | 66 | 24 | -11 | -4
55 | Cc1nc2ccccn2c1C(=O)NCc1ccc(Cl)cc1 | 8 | -25 | 15.8 | -82.6 | -3 | -6
56 | CC(C)(C)c1ccc2c(c1)CN(Cc1ccc(Cl)cc1)CO2 | 25.3 | -6.2 | 13.7 | -87.6 | 0 | -9
57 | CC(C)=CCC/C(C)=C\CNCCNC1C2CC3CC(C2)CC1C3 (stereo not given) | -14 | -28 | 5.5 | 11.5 | -12 | -8
58 | Nc1cccnc1Nc1ccc(Cl)cc1 | -17 | 16 | -12.9 | -4.6 | 12 | -7
59 | Cc1nc(-c2cccc(NCc3ccccc3)c2)[nH]c1C | -30 | 33 | 37.1 | 37 | -4 | 0
60 | CC1CC2=C(CC1CNCCCN(C)C)C(C)(C)CCC2 (stereo not given) | 24 | 37.4 | 90.6 | -10 | 6 | -3

Source: the supplement of paper PMC8497498
